These are yes or no findings as the source states them, for the method shown. Some binding calls cover weakened binding; strength is not graded here. Where a sequence is shown, tags or fusion partners need not be part of it. Values belong to the binder of their own block, whether it stands above or below them.
Target: T1, UNQ1900-ECD-Fc (human) (UniProt Q6UXG8)
T1 sequence: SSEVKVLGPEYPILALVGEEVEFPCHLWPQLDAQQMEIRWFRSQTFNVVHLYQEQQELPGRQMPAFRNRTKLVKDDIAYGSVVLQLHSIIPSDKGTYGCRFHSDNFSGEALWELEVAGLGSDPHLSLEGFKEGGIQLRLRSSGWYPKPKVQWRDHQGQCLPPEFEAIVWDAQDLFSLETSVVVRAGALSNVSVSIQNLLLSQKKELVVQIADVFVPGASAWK
Test: BiaCore; UNQ1900-ECD-Fc coated on chip, 275 proteins tested as analytes

binding: binds
B1: BDNF (ligand, UniProt P23560 129-247, looked up)
chain: HSDPARRGELSVCDSISEWVTAADKKTAVDMSGGTVTVLEKVPVSKGQLKQYFYETKCNPMGYTKEGCRGIDKRHWNSQCRTTQSYVRALTMDSKKRIGWRFIRIDTSCVCTLTIKRGR

binding: binds
B2: NT3 (ligand, UniProt P20783 139-257, looked up)
chain: YAEHKSHRGEYSVCDSESLWVTDKSSAIDIRGHQVTVLGEIKTGNSPVKQYFYETRCKEARPVKNGCRGIDDKHWNSQCKTSQTYVRALTSENNKLVGWRWIRIDTSCVCALSRKIGRT

binding: binds
B3: NT4 (ligand, UniProt P34130 81-210, looked up)
chain: GVSETAPASRRGELAVCDAVSGWVTDRRTAVDLRGREVEVLGEVPAAGGSPLRQYFFETRCKADNAEEGGPGAGGGGCRGVDRRHWVSECKAKQSYVRALTADAQGRVGWRWIRIDTACVCTLLSRTGRA

binding: binds
B4: EGFL8 (also called NG3) (ligand, UniProt Q99944 26-293, looked up)
chain: AKGGSLRESQGVCSKQTLVVPLHYNESYSQPVYKPYLTLCAGRRICSTYRTMYRVMWREVRREVQQTHAVCCQGWKKRHPGALTCEAICAKPCLNGGVCVRPDQCECAPGWGGKHCHVDVDECRTSITLCSHHCFNTAGSFTCGCPHDLVLGVDGRTCMEGSPEPPTSASILSVAVREAEKDERALKQEIHELRGRLERLEQWAGQAGAWVRAVLPVPPEELQPEQVAELWGRGDRIESLSDQVLLLEERLGACSCEDNSLGLGVNHR

— patent US20090196876A1
